Reference: paper PMC9704527

Sequences of proteins named here, by UniProt entry; tags and fusion partners are left off.
UniProt Q9Y4K3: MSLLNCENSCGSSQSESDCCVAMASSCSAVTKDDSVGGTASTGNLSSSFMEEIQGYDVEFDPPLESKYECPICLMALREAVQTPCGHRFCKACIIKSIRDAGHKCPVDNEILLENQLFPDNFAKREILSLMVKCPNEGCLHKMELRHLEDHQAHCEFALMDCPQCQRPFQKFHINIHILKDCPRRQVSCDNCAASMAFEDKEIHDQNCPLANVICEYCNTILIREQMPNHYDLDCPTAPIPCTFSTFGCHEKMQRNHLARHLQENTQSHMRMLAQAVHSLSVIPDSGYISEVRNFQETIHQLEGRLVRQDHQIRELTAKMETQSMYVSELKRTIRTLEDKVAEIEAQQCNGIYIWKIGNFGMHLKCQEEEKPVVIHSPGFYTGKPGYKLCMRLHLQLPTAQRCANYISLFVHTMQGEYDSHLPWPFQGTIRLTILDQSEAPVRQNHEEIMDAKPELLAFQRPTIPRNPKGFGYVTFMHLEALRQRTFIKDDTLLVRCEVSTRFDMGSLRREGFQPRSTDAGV
UniProt Q9BYM8: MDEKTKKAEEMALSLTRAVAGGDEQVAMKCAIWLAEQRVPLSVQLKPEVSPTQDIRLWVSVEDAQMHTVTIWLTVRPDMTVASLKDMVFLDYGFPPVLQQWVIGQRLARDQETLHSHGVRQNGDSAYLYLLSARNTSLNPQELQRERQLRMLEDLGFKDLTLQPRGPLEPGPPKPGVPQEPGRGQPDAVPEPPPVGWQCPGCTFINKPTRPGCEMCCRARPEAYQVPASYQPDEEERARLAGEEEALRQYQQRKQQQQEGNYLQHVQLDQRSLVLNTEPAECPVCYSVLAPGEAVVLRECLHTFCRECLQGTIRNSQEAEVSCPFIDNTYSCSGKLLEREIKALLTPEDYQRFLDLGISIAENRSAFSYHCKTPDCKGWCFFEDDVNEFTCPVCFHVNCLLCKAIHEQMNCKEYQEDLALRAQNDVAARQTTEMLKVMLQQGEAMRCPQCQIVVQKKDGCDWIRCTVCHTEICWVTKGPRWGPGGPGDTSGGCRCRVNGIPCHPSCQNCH
UniProt Q96EP0: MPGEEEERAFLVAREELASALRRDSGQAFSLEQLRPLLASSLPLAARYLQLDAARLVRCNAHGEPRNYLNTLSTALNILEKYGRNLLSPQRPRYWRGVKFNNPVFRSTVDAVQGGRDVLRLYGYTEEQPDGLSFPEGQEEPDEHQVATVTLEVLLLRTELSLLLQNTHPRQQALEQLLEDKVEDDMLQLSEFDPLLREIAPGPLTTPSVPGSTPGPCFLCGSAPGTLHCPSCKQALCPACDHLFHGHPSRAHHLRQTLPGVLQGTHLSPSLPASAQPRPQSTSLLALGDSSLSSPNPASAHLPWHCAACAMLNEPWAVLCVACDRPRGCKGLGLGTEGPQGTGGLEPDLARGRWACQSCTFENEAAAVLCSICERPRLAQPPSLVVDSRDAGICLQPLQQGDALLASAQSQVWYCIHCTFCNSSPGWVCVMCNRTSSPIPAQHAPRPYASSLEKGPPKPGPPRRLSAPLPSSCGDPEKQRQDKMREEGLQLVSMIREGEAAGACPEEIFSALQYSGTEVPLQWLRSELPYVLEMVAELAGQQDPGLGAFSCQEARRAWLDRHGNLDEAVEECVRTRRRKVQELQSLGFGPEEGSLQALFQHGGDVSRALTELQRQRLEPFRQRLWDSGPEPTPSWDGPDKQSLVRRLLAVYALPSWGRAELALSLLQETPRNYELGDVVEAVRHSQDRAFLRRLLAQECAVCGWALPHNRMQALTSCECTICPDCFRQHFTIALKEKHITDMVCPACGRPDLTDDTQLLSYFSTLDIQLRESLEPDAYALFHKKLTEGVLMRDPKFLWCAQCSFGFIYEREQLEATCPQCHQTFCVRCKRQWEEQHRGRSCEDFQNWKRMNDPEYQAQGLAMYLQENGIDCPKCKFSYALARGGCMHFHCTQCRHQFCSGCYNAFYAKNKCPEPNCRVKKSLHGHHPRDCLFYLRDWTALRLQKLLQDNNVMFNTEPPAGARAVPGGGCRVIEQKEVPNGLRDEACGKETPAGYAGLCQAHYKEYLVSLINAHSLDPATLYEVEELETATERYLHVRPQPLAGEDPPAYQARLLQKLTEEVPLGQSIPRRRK
UniProt Q15025: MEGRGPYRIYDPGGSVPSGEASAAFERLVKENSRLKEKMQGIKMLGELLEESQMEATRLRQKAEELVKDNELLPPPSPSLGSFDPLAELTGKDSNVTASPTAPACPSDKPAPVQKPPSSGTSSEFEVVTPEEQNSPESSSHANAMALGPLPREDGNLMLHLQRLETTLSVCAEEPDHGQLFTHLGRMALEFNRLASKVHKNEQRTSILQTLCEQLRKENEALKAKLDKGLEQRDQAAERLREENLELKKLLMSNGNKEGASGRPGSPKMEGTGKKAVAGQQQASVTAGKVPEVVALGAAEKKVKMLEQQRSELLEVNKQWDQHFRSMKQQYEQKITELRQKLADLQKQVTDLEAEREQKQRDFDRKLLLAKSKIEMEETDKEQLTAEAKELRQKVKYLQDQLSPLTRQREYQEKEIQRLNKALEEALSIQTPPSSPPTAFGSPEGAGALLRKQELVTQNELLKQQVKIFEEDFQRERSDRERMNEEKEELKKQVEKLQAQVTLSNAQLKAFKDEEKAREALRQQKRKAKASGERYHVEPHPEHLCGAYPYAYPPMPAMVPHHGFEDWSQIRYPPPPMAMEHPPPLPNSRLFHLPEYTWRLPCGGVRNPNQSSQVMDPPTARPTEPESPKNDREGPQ

Biological target: FLAG-TRAF6 (UniProt Q9Y4K3)
Assay: affinity purification with mass spectrometry; FLAG-TRAF6 stably expressed in TRAF6 KO HEK293 cells, stimulated with 10 µM ADP-heptose (20 min in the results, 15 min in the methods) or left untreated; extracts (1% Triton X-100, 100 mM iodoacetamide) on anti-FLAG M2 affinity gel 4 h at 4°C, washes with 300 mM NaCl, elution with 3X FLAG peptide; TMT quantification, enrichment after ADP-heptose

Molecule | binding
HOIL-1 (from UniProt Q9BYM8 1-510) | binds
HOIP (from UniProt Q96EP0 1-1072) | binds
ABIN1 (A20-binding inhibitor of NF-κB) (from UniProt Q15025 1-636) | binds
TIFA (protein, UniProt Q96CG3 1-184) MTSFEDADTEETVTCLQMTVYHPGQLQCGIFQSISFNREKLPSSEVVKFGRNSNICHYTFQDKQVSRVQFSLQLFKKFNSSVLSFEIKNMSKKTNLIVDSRELGYLNKMDLPYRCMVRFGEYQFLMEKEDGESLEFFETQFILSPRSLLQENNWPPHRPIPEYGTYSLCSSQSSSPTEMDENES | binds
HtrA2/Omi (protein, UniProt O43464 134-458) AVPSPPPASPRSQYNFIADVVEKTAPAVVYIEILDRHPFLGREVPISNGSGFVVAADGLIVTNAHVVADRRRVRVRLLSGDTYEAVVTAVDPVADIATLRIQTKEPLPTLPLGRSADVRQGEFVVAMGSPFALQNTITSGIVSSAQRPARDLGLPQTNVEYIQTDAAIDFGNSGGPLVNLDGEVIGVNTMKVTAGISFAIPSDRLREFLHRGEKKNSSSGISGSQRRYIGVMMLTLSPSILAELQLREPSFPDVQHGVLIHKVILGSPAHRAGLRPGDVILAIGEQMVQNAEDVYEAVRTQSQLAVQIRRGRETLTLYVTPEVTE | binds
TAB1 (protein, UniProt Q15750 1-504) MAAQRRSLLQSEQQPSWTDDLPLCHLSGVGSASNRSYSADGKGTESHPPEDSWLKFRSENNCFLYGVFNGYDGNRVTNFVAQRLSAELLLGQLNAEHAEADVRRVLLQAFDVVERSFLESIDDALAEKASLQSQLPEGVPQHQLPPQYQKILERLKTLEREISGGAMAVVAVLLNNKLYVANVGTNRALLCKSTVDGLQVTQLNVDHTTENEDELFRLSQLGLDAGKIKQVGIICGQESTRRIGDYKVKYGYTDIDLLSAAKSKPIIAEPEIHGAQPLDGVTGFLVLMSEGLYKALEAAHGPGQANQEIAAMIDTEFAKQTSLDAVAQAVVDRVKRIHSDTFASGGERARFCPRHEDMTLLVRNFGYPLGEMSQPTPSPAPAAGGRVYPVSVPYSSAQSTSKTSVTLSLVMPSQGQMVNGAHSASTLDEATPTLTNQSPTLTLQSTNTHTQSSSSSSDGGLFRSRPAHSLPPGEDGRVEPYVDFAEFYRLWSVDHGEQSVVTAP | binds
TAB2 (protein, UniProt Q9NYJ8 1-693) MAQGSHQIDFQVLHDLRQKFPEVPEVVVSRCMLQNNNNLDACCAVLSQESTRYLYGEGDLNFSDDSGISGLRNHMTSLNLDLQSQNIYHHGREGSRMNGSRTLTHSISDGQLQGGQSNSELFQQEPQTAPAQVPQGFNVFGMSSSSGASNSAPHLGFHLGSKGTSSLSQQTPRFNPIMVTLAPNIQTGRNTPTSLHIHGVPPPVLNSPQGNSIYIRPYITTPGGTTRQTQQHSGWVSQFNPMNPQQVYQPSQPGPWTTCPASNPLSHTSSQQPNQQGHQTSHVYMPISSPTTSQPPTIHSSGSSQSSAHSQYNIQNISTGPRKNQIEIKLEPPQRNNSSKLRSSGPRTSSTSSSVNSQTLNRNQPTVYIAASPPNTDELMSRSQPKVYISANAATGDEQVMRNQPTLFISTNSGASAASRNMSGQVSMGPAFIHHHPPKSRAIGNNSATSPRVVVTQPNTKYTFKITVSPNKPPAVSPGVVSPTFELTNLLNHPDHYVETENIQHLTDPTLAHVDRISETRKLSMGSDDAAYTQALLVHQKARMERLQRELEIQKKKLDKLKSEVNEMENNLTRRRLKRSNSISQIPSLEEMQQLRSCNRQLQIDIDCLTKEIDLFQARGPHFNPSAIHNFYDNIGFVGPVPPKPKDQRSIIKTPKTQDTEDDEGAQWNCTACTFLNHPALIRCEQCEMPRHF | binds
TAB3 (protein, UniProt Q8N5C8 1-712) MAQSSPQLDIQVLHDLRQRFPEIPEGVVSQCMLQNNNNLEACCRALSQESSKYLYMEYHSPDDNRMNRNRLLHINLGIHSPSSYHPGDGAQLNGGRTLVHSSSDGHIDPQHAAGKQLICLVQEPHSAPAVVAATPNYNPFFMNEQNRSAATPPSQPPQQPSSMQTGMNPSAMQGPSPPPPPPSYMHIPRYSTNPITVTVSQNLPSGQTVPRALQILPQIPSNLYGSPGSIYIRQTSQSSSGRQTPQSTPWQSSPQGPVPHYSQRPLPVYPHQQNYQPSQYSPKQQQIPQSAYHSPPPSQCPSPFSSPQHQVQPSQLGHIFMPPSPSTTPPHPYQQGPPSYQKQGSHSVAYLPYTASSLSKGSMKKIEITVEPSQRPGTAINRSPSPISNQPSPRNQHSLYTATTPPSSSPSRGISSQPKPPFSVNPVYITYTQPTGPSCTPSPSPRVIPNPTTVFKITVGRATTENLLNLVDQEERSAAPEPIQPISVIPGSGGEKGSHKYQRSSSSGSDDYAYTQALLLHQRARMERLAKQLKLEKEELERLKSEVNGMEHDLMQRRLRRVSCTTAIPTPEEMTRLRSMNRQLQINVDCTLKEVDLLQSRGNFDPKAMNNFYDNIEPGPVVPPKPSKKDSSDPCTIERKARRISVTSKVQADIHDTQAAAADEHRTGSTQSPRTQPRDEDYEGAPWNCDSCTFLNHPALNRCEQCEMPRYT | binds
TAK1 (protein, UniProt O43318 1-606) MSTASAASSSSSSSAGEMIEAPSQVLNFEEIDYKEIEVEEVVGRGAFGVVCKAKWRAKDVAIKQIESESERKAFIVELRQLSRVNHPNIVKLYGACLNPVCLVMEYAEGGSLYNVLHGAEPLPYYTAAHAMSWCLQCSQGVAYLHSMQPKALIHRDLKPPNLLLVAGGTVLKICDFGTACDIQTHMTNNKGSAAWMAPEVFEGSNYSEKCDVFSWGIILWEVITRRKPFDEIGGPAFRIMWAVHNGTRPPLIKNLPKPIESLMTRCWSKDPSQRPSMEEIVKIMTHLMRYFPGADEPLQYPCQYSDEGQSNSATSTGSFMDIASTNTSNKSDTNMEQVPATNDTIKRLESKLLKNQAKQQSESGRLSLGASRGSSVESLPPTSEGKRMSADMSEIEARIAATTAYSKPKRGHRKTASFGNILDVPEIVISGNGQPRRRSIQDLTVTGTEPGQVSSRSSSPSVRMITTSGPTSEKPTRSHPWTPDDSTDTNGSDNSIPMAYLTLDHQLQPLAPCPNSKESMAVFEQHCKMAQEYMKVQTEIALLLQRKQELVAELDQDEKDQQNTSRLVQEHKKLLDENKSLSTYYQQCKKQLEVIRSQQQKRQGTS | binds
IKKβ (protein, UniProt O14920 1-756) MSWSPSLTTQTCGAWEMKERLGTGGFGNVIRWHNQETGEQIAIKQCRQELSPRNRERWCLEIQIMRRLTHPNVVAARDVPEGMQNLAPNDLPLLAMEYCQGGDLRKYLNQFENCCGLREGAILTLLSDIASALRYLHENRIIHRDLKPENIVLQQGEQRLIHKIIDLGYAKELDQGSLCTSFVGTLQYLAPELLEQQKYTVTVDYWSFGTLAFECITGFRPFLPNWQPVQWHSKVRQKSEVDIVVSEDLNGTVKFSSSLPYPNNLNSVLAERLEKWLQLMLMWHPRQRGTDPTYGPNGCFKALDDILNLKLVHILNMVTGTIHTYPVTEDESLQSLKARIQQDTGIPEEDQELLQEAGLALIPDKPATQCISDGKLNEGHTLDMDLVFLFDNSKITYETQISPRPQPESVSCILQEPKRNLAFFQLRKVWGQVWHSIQTLKEDCNRLQQGQRAAMMNLLRNNSCLSKMKNSMASMSQQLKAKLDFFKTSIQIDLEKYSEQTEFGITSDKLLLAWREMEQAVELCGRENEVKLLVERMMALQTDIVDLQRSPMGRKQGGTLDDLEEQARELYRRLREKPRDQRTEGDSQEMVRLLLQAIQSFEKKVRVIYTQLSKTVVCKQKALELLPKVEEVVSLMNEDEKTVVRLQEKRQKELWNLLKIACSKVRGPVSGSPDSMNASRLSQPGQLMSQPSTASNSLPEPAKKSEELVAEAHNLCTLLENAIQDTVREQDQSFTALDWSWLQTEEEEHSCLEQAS | binds
Sharpin (protein, UniProt Q9H0F6 1-387) MAPPAGGAAAAASDLGSAAVLLAVHAAVRPLGAGPDAEAQLRRLQLSADPERPGRFRLELLGAGPGAVNLEWPLESVSYTIRGPTQHELQPPPGGPGTLSLHFLNPQEAQRWAVLVRGATVEGQNGSKSNSPPALGPEACPVSLPSPPEASTLKGPPPEADLPRSPGNLTEREELAGSLARAIAGGDEKGAAQVAAVLAQHRVALSVQLQEACFPPGPIRLQVTLEDAASAASAASSAHVALQVHPHCTVAALQEQVFSELGFPPAVQRWVIGRCLCVPERSLASYGVRQDGDPAFLYLLSAPREAPATGPSPQHPQKMDGELGRLFPPSLGLPPGPQPAASSLPSPLQPSWSCPSCTFINAPDRPGCEMCSTQRPCTWDPLAAAST | binds

These are yes or no findings as the source states them, for the method shown. Binding seen in cells or lysates may run through a third protein. Here binding means that the protein was enriched with, or labelled near, the bait; the list need not be complete.
